# Results: the supplement of paper PMC10849652
# Sequences of proteins named here, by UniProt entry; tags and fusion partners are left off. A change or cut given only in a name is not applied to a line headed by its entry.
# UniProt O75396: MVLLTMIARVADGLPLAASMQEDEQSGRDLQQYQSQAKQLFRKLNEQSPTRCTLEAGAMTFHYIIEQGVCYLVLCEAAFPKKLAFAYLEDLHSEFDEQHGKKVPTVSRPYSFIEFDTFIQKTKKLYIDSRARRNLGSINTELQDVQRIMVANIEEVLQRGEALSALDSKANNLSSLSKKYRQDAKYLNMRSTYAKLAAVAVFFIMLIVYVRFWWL
# UniProt Q15424: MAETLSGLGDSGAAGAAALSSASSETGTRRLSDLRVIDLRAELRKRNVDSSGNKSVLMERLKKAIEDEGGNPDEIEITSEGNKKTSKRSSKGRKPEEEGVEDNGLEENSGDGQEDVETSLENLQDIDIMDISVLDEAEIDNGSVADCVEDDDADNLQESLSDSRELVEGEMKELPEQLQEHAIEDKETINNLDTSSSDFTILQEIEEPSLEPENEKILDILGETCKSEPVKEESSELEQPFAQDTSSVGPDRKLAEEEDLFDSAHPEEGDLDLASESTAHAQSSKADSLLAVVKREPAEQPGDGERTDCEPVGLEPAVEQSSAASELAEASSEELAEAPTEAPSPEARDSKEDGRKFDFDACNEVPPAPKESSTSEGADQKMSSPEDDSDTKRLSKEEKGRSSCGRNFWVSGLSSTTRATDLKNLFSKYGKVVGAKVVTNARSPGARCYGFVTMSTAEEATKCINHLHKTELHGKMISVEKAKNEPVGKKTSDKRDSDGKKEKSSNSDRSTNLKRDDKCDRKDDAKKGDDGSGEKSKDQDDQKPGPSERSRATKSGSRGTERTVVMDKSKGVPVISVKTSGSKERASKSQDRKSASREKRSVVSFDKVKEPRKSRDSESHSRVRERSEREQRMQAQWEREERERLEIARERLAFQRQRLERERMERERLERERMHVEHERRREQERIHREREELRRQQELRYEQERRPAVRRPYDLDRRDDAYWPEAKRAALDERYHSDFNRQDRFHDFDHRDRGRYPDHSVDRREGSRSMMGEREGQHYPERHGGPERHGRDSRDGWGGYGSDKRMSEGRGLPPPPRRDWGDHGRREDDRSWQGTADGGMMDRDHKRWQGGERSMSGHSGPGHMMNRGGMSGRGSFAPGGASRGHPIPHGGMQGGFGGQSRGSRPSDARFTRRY
# UniProt O43819: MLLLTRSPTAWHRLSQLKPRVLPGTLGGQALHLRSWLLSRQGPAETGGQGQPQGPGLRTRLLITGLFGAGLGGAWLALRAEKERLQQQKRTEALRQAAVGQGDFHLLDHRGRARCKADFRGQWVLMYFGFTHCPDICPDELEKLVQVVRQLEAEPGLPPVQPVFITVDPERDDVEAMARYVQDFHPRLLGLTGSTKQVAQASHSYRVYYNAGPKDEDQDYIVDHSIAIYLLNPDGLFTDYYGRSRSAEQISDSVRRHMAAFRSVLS
# UniProt Q96BU1: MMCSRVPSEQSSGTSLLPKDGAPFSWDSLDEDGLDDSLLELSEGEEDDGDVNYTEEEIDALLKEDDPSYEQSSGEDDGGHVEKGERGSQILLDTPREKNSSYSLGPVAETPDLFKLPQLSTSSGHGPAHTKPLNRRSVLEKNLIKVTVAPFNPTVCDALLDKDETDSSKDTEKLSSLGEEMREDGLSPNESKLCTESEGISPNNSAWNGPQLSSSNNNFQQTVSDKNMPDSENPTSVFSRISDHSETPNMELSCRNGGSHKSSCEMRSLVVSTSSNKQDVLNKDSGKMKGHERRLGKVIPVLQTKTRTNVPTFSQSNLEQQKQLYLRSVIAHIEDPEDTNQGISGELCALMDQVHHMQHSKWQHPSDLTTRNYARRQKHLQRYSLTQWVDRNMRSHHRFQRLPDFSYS
# UniProt Q8NBX0: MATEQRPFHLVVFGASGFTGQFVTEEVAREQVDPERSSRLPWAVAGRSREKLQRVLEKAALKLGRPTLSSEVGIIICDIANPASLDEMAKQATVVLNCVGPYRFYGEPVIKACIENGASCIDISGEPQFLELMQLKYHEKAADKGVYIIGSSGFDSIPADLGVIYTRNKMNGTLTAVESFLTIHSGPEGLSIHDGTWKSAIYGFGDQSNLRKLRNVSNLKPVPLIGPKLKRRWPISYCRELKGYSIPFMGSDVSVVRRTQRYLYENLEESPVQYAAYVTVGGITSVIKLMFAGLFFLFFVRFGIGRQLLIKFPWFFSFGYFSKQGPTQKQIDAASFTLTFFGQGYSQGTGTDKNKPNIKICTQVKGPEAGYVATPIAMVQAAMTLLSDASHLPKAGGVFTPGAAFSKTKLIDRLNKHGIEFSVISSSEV
# UniProt Q9Y3A5: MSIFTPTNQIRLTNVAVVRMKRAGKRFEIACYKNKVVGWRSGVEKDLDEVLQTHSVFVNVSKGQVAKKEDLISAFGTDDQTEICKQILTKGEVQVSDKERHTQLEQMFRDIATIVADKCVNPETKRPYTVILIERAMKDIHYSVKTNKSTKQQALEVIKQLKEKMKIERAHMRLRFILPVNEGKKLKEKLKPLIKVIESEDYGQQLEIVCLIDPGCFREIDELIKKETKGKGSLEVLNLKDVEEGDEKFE
# UniProt O00560: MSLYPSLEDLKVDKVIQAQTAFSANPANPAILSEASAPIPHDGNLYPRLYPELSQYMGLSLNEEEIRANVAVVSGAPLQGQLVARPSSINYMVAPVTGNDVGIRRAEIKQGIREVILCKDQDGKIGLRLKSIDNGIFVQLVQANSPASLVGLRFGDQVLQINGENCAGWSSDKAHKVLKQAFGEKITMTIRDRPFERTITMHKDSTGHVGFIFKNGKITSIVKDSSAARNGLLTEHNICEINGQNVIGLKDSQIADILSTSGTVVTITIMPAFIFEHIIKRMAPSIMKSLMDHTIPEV
# UniProt P82979: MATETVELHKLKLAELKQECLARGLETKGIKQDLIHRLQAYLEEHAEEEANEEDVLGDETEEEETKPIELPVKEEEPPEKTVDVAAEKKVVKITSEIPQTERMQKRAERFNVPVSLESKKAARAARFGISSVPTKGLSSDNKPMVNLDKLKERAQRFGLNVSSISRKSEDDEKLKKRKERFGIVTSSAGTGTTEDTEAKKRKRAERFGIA
# UniProt Q6UVJ0: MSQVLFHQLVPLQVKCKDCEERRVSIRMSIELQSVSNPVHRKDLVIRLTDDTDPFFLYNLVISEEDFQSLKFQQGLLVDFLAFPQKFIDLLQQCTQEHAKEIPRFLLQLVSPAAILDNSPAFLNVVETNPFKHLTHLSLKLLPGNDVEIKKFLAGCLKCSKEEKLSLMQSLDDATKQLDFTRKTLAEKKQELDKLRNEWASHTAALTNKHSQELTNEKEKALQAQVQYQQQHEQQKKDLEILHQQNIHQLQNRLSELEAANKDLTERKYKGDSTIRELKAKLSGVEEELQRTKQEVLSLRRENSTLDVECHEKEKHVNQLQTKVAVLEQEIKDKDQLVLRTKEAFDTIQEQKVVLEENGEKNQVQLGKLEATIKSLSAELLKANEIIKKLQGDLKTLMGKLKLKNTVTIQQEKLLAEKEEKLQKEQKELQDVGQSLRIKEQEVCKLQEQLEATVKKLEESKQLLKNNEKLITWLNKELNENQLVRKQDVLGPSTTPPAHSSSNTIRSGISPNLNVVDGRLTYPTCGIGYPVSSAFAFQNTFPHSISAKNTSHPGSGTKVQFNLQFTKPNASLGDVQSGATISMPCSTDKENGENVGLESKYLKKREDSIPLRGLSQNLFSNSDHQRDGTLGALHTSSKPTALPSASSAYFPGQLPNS
# UniProt Q9NTJ5: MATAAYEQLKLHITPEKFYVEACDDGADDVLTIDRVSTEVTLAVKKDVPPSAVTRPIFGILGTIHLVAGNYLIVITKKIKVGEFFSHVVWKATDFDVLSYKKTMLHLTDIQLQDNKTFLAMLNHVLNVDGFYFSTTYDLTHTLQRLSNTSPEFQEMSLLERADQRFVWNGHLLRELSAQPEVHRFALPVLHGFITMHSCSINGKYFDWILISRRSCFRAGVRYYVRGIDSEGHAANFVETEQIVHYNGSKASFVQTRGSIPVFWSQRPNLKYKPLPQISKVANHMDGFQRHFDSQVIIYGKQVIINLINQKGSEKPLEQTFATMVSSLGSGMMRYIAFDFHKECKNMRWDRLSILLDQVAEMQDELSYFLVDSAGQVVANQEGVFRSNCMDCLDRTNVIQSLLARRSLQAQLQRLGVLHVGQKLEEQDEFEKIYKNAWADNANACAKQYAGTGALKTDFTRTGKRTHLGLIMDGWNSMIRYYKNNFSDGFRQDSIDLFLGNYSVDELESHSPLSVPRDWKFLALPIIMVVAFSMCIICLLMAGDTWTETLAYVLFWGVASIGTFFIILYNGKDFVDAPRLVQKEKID
# UniProt Q96KG9: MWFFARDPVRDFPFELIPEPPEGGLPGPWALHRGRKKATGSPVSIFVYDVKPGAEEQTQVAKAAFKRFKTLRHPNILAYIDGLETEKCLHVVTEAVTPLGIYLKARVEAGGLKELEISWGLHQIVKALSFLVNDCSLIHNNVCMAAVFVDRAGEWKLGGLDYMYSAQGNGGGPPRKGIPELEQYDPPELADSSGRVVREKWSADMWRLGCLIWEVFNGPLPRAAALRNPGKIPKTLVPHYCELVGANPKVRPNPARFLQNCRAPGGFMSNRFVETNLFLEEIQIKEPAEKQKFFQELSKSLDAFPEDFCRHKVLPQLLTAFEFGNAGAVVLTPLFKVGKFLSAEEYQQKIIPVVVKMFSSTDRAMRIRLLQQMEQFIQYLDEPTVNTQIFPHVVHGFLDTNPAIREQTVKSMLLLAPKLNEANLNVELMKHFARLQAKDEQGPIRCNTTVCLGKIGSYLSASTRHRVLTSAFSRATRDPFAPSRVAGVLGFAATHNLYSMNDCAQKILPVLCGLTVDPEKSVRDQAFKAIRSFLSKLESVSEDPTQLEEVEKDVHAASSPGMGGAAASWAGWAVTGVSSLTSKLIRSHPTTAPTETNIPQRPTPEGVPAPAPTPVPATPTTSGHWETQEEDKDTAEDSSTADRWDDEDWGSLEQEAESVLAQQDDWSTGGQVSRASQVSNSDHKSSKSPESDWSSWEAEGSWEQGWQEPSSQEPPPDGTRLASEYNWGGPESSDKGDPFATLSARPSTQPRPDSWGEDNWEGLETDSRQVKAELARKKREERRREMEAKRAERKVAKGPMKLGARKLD
# UniProt Q9UBE0: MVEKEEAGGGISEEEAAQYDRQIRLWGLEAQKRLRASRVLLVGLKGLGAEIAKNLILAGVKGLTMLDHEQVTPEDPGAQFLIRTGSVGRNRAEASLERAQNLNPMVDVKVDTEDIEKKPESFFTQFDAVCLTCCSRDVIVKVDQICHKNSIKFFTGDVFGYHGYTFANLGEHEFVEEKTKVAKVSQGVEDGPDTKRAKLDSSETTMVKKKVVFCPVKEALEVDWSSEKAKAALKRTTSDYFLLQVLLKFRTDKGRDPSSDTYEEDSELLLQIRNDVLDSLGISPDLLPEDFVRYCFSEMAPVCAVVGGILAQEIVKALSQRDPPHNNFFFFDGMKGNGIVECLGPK
# This is one part of the list.
# Legend:
# Experiment in all cases: log2 fold change, soluble protein after heating vs DMSO (PISA); higher = thermal stabilisation; K562 cells, 10 uM, 30 min; active = over 0.2 and 3.5 SD of the protein, either way, in both replicates (recomputed)
# [1] = compound: CC1=C(C=C(C=C1)NC(=O)C2=CC(=CC=C2)C(C)(C)C#N)NC3=CC4=C(C=C3)N=CN(C4=O)C
# Outline: (§1)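 K562 cells at 2×10^6 cells/mL were treated for 30 min with 10 μM compound, and aliquots were heated for 3 min over 48°C-58°C before pooling. Extraction used PBS with 0.5% NP-40 at 4°C, and soluble protein was the supernatant after 21,000xg for 90 min, measured by TMTpro 16plex LC-MS/MS with channel sums equalised. Thermal stability values, relative to control samples and from duplicates, are log2 fold changes.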
# [2] = compound: CC1=C(C=C(C=C1)NC(=O)C2=CC(=CC=C2)N(C)C)NC(=O)C3=CC=C(C=C3)O
# Outline: as §1
# [3] = compound: CC1=CC=C(C=C1)SC2=C3C=C(SC3=CN=C2)C(=O)N
# Outline: as §1
# [4] = compound: CC1=NC(=CC=C1)C2=C(N=C(N2)C(C)(C)C)C3=CC4=NC=CN=C4C=C3
# Outline: as §1
# Nexturastat A = compound: CCCCN(Cc1ccc(C(=O)NO)cc1)C(=O)Nc1ccccc1 [Nexturastat A]
# Outline: as §1
# vemurafenib = compound: CCCS(=O)(=O)Nc1ccc(F)c(C(=O)c2c[nH]c3ncc(-c4ccc(Cl)cc4)cc23)c1F [vemurafenib]
# Outline: as §1
# [5] = compound: CCCS(=O)(=O)Nc1ccc(F)c(C(=O)c2c[nH]c3ncc(Cl)cc23)c1F
# Outline: as §1
# [6] = compound: CCCc1cc(C)[nH]c(=O)c1CNC(=O)c1cc(-c2ccnc(N3CCN(C)CC3)c2)cc2c1cnn2C(C)C
# Outline: as §1
# givinostat = compound: CCN(CC)Cc1ccc2cc(COC(=O)Nc3ccc(C(=O)NO)cc3)ccc2c1 [givinostat]
# Outline: as §1
# barasertib = compound: CCN(CCCOc1ccc2c(Nc3cc(CC(=O)Nc4cccc(F)c4)[nH]n3)ncnc2c1)CCOP(=O)(O)O [barasertib]
# Outline: as §1
Target,log2 fold change [1],log2 fold change [2],log2 fold change [3],log2 fold change [4],log2 fold change (Nexturastat A),log2 fold change (vemurafenib),log2 fold change [5],log2 fold change [6],log2 fold change (givinostat),log2 fold change (barasertib)
SEC22B (UniProt O75396),inactive: 0.04,inactive: -0.007,inactive: -0.004,inactive: 0.025,inactive: -0.096,inactive: 0.127,inactive: 0.028,inactive: 0.052,inactive: 0.004,inactive: 0.007
SAFB isoform 3 (UniProt Q15424),inactive: -0.108,inactive: 0.086,inactive: 0,inactive: -0.113,inactive: 0.219,inactive: -0.074,inactive: -0.049,inactive: 0.071,inactive: 0.102,inactive: -0.149
SAE1 (UniProt M0R286),inactive: -0.254,inactive: 0.069,inactive: -0.148,inactive: 0.06,inactive: -0.218,inactive: -0.04,inactive: -0.092,inactive: -0.395,inactive: 0.042,inactive: 0.101
SCO2 (UniProt O43819),active: -0.487,inactive: -0.079,inactive: 0.029,inactive: -0.003,inactive: 0.269,inactive: 0.05,inactive: 0.029,inactive: 0.059,inactive: 0.03,inactive: 0.153
S100PBP (UniProt Q96BU1),inactive: -0.097,inactive: -0.003,inactive: -0.147,inactive: -0.003,inactive: -0.06,inactive: 0.125,inactive: 0.125,inactive: -0.064,inactive: 0.021,inactive: 0.104
SCCPDH (UniProt Q8NBX0),inactive: 0.147,inactive: -0.092,inactive: 0.074,inactive: 0.037,inactive: -0.232,inactive: -0.016,inactive: -0.123,inactive: 0.016,inactive: 0.183,inactive: 0.046
SBDS (UniProt Q9Y3A5),inactive: 0.006,inactive: -0.075,inactive: 0.031,inactive: 0.042,inactive: 0.012,inactive: 0.014,inactive: 0.063,inactive: 0.044,inactive: 0.046,inactive: 0.083
SDCBP (UniProt O00560),inactive: 0.007,inactive: 0.021,inactive: 0.009,inactive: 0.025,inactive: 0.001,inactive: 0.051,inactive: 0.041,inactive: -0.176,inactive: -0.027,inactive: -0.039
SARNP (UniProt P82979),inactive: -0.039,inactive: 0.007,inactive: -0.071,inactive: -0.065,inactive: 0.019,inactive: -0.077,inactive: -0.121,inactive: -0.06,inactive: -0.04,inactive: -0.056
SASS6 (UniProt Q6UVJ0),inactive: -0.087,inactive: 0.015,inactive: -0.019,inactive: -0.073,inactive: 0.078,inactive: 0.024,inactive: 0.069,inactive: 0.152,inactive: 0.023,inactive: 0.183
SACM1L (UniProt Q9NTJ5),inactive: 0.08,inactive: -0.024,inactive: -0.004,inactive: 0.031,inactive: -0.03,inactive: 0.052,inactive: 0.069,inactive: 0.043,inactive: 0.028,inactive: 0.049
SCYL1 (UniProt Q96KG9),inactive: -0.002,inactive: -0.029,inactive: 0.012,inactive: 0.051,inactive: -0.08,inactive: 0.015,inactive: 0.022,inactive: 0.04,inactive: -0.045,inactive: 0.031
SBF1 isoform 4 (UniProt O95248),inactive: -0.002,inactive: 0.094,inactive: -0.135,inactive: -0.08,inactive: 0.13,inactive: -0.222,inactive: 0.009,inactive: -0.023,inactive: 0.071,inactive: -0.03
SAE1 (UniProt Q9UBE0),inactive: 0.045,inactive: -0.026,inactive: -0.023,inactive: 0.022,inactive: -0.046,inactive: 0.028,inactive: 0.036,inactive: -0.015,inactive: -0.024,inactive: 0.017

# 3 entries from above, with bars between the fields.
Target | log2 fold change [1] | log2 fold change [2] | log2 fold change [3] | log2 fold change [4] | log2 fold change (Nexturastat A) | log2 fold change (vemurafenib) | log2 fold change [5] | log2 fold change [6] | log2 fold change (givinostat) | log2 fold change (barasertib)
SCYL1 (UniProt Q96KG9) | inactive: -0.002 | inactive: -0.029 | inactive: 0.012 | inactive: 0.051 | inactive: -0.08 | inactive: 0.015 | inactive: 0.022 | inactive: 0.04 | inactive: -0.045 | inactive: 0.031
SBF1 isoform 4 (UniProt O95248) | inactive: -0.002 | inactive: 0.094 | inactive: -0.135 | inactive: -0.08 | inactive: 0.13 | inactive: -0.222 | inactive: 0.009 | inactive: -0.023 | inactive: 0.071 | inactive: -0.03
SAE1 (UniProt Q9UBE0) | inactive: 0.045 | inactive: -0.026 | inactive: -0.023 | inactive: 0.022 | inactive: -0.046 | inactive: 0.028 | inactive: 0.036 | inactive: -0.015 | inactive: -0.024 | inactive: 0.017
